Primary screen of a compound library

Sequences of proteins named here, by UniProt entry; tags and fusion partners are left off. Residues count along the entry.
UniProt Q4DA54, 1-478: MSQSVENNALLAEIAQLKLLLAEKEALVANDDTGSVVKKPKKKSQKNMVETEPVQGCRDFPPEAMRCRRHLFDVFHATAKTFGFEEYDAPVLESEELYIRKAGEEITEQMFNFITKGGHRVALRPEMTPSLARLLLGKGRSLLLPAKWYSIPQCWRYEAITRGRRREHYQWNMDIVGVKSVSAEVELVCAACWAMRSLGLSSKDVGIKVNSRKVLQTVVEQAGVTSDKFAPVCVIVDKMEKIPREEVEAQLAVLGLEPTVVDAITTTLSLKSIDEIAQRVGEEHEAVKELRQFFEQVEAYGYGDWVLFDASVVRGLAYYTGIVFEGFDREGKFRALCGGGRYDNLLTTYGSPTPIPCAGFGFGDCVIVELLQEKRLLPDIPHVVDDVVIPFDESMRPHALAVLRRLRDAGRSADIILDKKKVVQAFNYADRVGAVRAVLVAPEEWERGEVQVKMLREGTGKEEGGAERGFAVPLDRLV
UniProt A4I591, 1-473: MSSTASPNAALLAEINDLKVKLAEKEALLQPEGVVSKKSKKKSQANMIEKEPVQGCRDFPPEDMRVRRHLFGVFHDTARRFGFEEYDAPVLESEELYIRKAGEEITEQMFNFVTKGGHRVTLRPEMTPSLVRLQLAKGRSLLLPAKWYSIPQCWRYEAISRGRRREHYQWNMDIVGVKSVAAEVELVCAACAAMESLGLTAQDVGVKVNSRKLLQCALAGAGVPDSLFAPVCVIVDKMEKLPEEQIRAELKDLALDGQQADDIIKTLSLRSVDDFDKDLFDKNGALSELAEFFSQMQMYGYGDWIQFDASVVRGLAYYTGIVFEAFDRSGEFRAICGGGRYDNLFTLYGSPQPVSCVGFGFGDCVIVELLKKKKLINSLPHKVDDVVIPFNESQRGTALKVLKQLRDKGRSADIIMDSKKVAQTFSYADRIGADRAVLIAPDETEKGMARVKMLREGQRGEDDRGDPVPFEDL
UniProt Q8IDJ8, 1-583: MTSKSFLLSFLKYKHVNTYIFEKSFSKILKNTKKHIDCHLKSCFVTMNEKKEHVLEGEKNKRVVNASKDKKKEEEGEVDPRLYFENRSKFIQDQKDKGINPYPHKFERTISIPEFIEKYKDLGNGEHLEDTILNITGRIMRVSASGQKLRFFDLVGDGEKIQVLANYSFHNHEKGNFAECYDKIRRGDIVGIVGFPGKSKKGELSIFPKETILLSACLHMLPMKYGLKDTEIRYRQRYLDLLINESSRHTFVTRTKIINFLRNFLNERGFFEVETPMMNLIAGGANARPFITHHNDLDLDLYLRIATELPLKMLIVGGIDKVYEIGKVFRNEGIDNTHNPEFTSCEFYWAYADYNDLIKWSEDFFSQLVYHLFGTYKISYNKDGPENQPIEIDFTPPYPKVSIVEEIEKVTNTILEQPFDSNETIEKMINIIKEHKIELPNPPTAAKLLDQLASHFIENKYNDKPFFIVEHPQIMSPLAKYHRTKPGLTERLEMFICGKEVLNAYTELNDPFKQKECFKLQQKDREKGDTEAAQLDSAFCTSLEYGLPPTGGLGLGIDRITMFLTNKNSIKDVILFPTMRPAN
UniProt P9WNZ1, whole entry: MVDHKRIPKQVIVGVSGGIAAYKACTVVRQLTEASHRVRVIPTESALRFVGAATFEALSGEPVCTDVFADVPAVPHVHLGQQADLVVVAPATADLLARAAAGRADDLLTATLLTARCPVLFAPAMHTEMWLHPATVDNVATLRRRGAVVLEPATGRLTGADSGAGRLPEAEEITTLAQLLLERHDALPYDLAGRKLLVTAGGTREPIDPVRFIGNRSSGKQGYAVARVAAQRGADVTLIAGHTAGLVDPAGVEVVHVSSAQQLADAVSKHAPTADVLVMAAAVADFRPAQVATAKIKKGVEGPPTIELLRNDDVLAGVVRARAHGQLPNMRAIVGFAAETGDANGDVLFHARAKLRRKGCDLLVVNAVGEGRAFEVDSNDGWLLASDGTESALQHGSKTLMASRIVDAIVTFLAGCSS

TcHisRS: 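Enzyme assay of histidyl-tRNA synthetase; the read-out is not stated. Target: Histidine-tRNA ligase, Trypanosoma cruzi CL Brener (UniProt Q4DA54). Tested at 30 µM. The record gives no direction; compounds that gave an IC50 in retests scored well above the rest, so higher reads as stronger inhibition. Of about 69,000 compounds tested this way, about 31 (0.045%) reached 50% or more in at least one test.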
LiHisRS: 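Enzyme assay of histidyl-tRNA synthetase; the read-out is not stated. Target: Histidine-tRNA ligase, Leishmania infantum (UniProt A4I591). Tested at 30 µM. The record gives no direction; compounds that gave an IC50 in retests scored well above the rest, so higher reads as stronger inhibition. The assay is labelled LdHisRS but filed under L. infantum. Size under these conditions: about 69,000 compounds, about 410 of them at 50% or above in at least one test.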
Toxoplasma: 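Assay of Toxoplasma gondii numbers, read through their beta-galactosidase reporter with a colour substrate. Concentration: 10 µM. Higher reads as fewer parasites (inferred from which compounds were picked for retests). Size under these conditions: about 67,000 compounds, about 260 of them at 50% or above in at least one test.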
PfKRS1: 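Lysine-tRNA ligase, Plasmodium falciparum 3D7 (UniProt Q8IDJ8). Enzyme assay of the cytosolic lysyl-tRNA synthetase in 384-well plates, read by luminescence. Concentration: 30 µM. Direction is inferred from only a few compounds that gave an IC50; most scored high, so higher reads as stronger inhibition. Size under these conditions: about 69,000 compounds, about 49 of them at 50% or above in at least one test.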
CoaBC: 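Enzyme assay of CoaBC with a phosphate dye (Biomol Green) read at 650 nm. Target: Coenzyme A biosynthesis protein CoaBC, Mycobacterium tuberculosis (UniProt P9WNZ1). Concentration: 30 µM. Direction is inferred from only a few compounds that gave an IC50; most scored high, so higher reads as stronger inhibition. Most strong results did not repeat in a second test. Of about 67,000 compounds tested this way, about 40 (0.06%) reached 50% or more in at least one test.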

Values are the deposited “Percent Effect”, in %.
How 0% and 100% were set is not recorded. Most values in the screen are low, and negative values occur.
The compounds are a random part of those screened.
Two or more numbers in one place are separate tests of the same structure; such repeats can differ widely.
A dash means the value is not listed here; it may have been measured.

| # | compound | TcHisRS | LiHisRS | Toxoplasma | PfKRS1 | CoaBC |
|---|---|---|---|---|---|---|
| 1 | `Cc1cc(=O)n2nc(CNc3cc(Cl)ccc3C)nc2[nH]1` | 7.921% | 22.83% | 13.75% | 5.768% | 3.511% |
| 2 | `O=C(O)C(F)(F)F.O=C(O)C(F)(F)F.O=C(O)C(F)(F)F.c1cncc(C[C@H]2[C@H](N3CCOCC3)CCN2Cc2nccs2)c1` | - | - | 2.217% | - | - |
| 3 | `CN(C)Cc1cc(=O)n2c(n1)CN(C(=O)Cc1cccs1)CCC2.O=C(O)C(F)(F)F` | - | - | 10.2% | - | - |
| 4 | `CO[C@H]1CN(C(=O)c2cn3cc(C)ccc3n2)CC[C@@]12CCCO2` | 3.143% | 8.054% | -22.99% | 0.1689% | -5.708% |
| 5 | `CNC(=O)NC(=O)CN1CCC(c2cccc(F)c2)C1` (configuration not stated) | 4.183% | 7.2% | -18.35% | 0.01213% | -2.926% |
| 6 | `O=C1CCCN1CC1CN(C(=O)CC2CCCC2)Cc2nccn2C1` (configuration not stated) | 1.087% | 18.45% | -2.772% | 3.852% | 4.689% |
| 7 | `Cc1nccc(CN2Cc3nccn3CC2c2ccccc2)n1` (configuration not stated) | 4.52% | 4.196% | 10.6% | 0.9847% | 11.38% |
| 8 | `O=C(NCCn1cccc1)C1CCN(C2CCCCC2)CC1` | 9.827% | 8.511% | -5.607% | 2.357% | 2.481% |
| 9 | `O=C(CC1=CSC2=NCCCN12)N1CCCCCC1c1ccco1` (configuration not stated) | 2.591% | 4.301% | 6.443% | 2.048% | -1.459% |
| 10 | `COc1c(CNC2(c3noc(C)n3)CCC2)c(C)nn1C` | 2.762% | 23.94% | - | -1.132% | 7.78% |
| 11 | `Cc1ccc(CN2CCC3(CC2)CC(N2CCN(C)CC2)CO3)s1` (configuration not stated) | 13.73% | 26% | - | 1.769% | 6.25% |
| 12 | `CCN(CC)C(=O)N1CCOCC1c1c(C)nn(C)c1C` (configuration not stated) | -2.381% | 3.101% | 5.62% | -1.816% | 0.3686% |
| 13 | `Cn1cc(-c2ccnc(NCC3CCN(Cc4ccccc4)C3)n2)cn1` (configuration not stated) | 4.372% | 21.05% | 20.56% | -4.765% | -2.397% |
| 14 | `Cn1nc2c(c1NC(=O)c1cccs1)CCC2` | 5.941% | 13.04% | - | 0.8604% | 0.3645% |
| 15 | `Nc1c(C(=O)C2CCCN(C(=O)C3CC3)C2)cnn1-c1ccc(F)cc1` (configuration not stated) | 8.333% | 13.04% | -11.75% | -1.778% | -8.41% |
| 16 | `NC(=O)N1CCC2(CCN(Cc3cccc(F)c3)CC2)CC1` | 0% | 12.26% | - | -2.298% | 5.909% |
| 17 | `CC(=O)NC(C)(C)C(=O)Nc1ncc(Cc2ccc(C)c(F)c2)s1` | 5.639% | -54.05% | 2.868% | 5.759% | 4.961% |
| 18 | `Cc1nc(C)n(CC2CCCN2Cc2cn(-c3ccccc3)nn2)n1` (configuration not stated) | -1.132% | 4.054% | 3.852% | -2.141% | 2.477% |
| 19 | `COCCCNC(=O)c1cn(C(C)C)cc2c(=O)[nH]nc1-2` | 11% | 21.74% | -5.981% | -0.7593% | 0.7264% |
| 20 | `CCC(OC)C(=O)NCc1cc2n(n1)CCCN(C1CCCCC1)C2` (configuration not stated) | 3.518% | 8.989% | -8.649% | 0.2907% | 2.768% |
| 21 | `CCN(C(=O)C(C)C)C(c1cccnc1)c1ccc2c(c1)CCO2` (configuration not stated) | 3.061% | -3.226% | 0.903% | -4.131% | -0.8485% |
| 22 | `O=C(NC[C@]12COC[C@H]1CN(CC1CCOCC1)C2)c1ccccc1` | 7.317% | 20.51% | - | 4.298% | 3.258% |
| 23 | `Cc1csc(C(C#N)C(=O)Nc2ccccc2)n1` (configuration not stated) | 3.333% | -4.274% | 6.056% | 1.535% | -1.261% |
| 24 | `CN(C)C(=O)NCc1cc2n(n1)CCCN(CC1CCCNC1)C2` (configuration not stated) | -5.528% | 18.4% | 9.084% | -2.513% | 4.946% |
| 25 | `CC(NC(=O)CCn1c(=O)oc2ccccc21)c1ccccn1` (configuration not stated) | 3.448% | 11.51% | 4.275% | 0.3559% | -2.392% |
| 26 | `CC1(C)CNC(=O)c2nc(CCN3CCC(O)CC3)[nH]c2C1` | 0.9804% | 11.2% | -1.592% | -2.02% | 3.171% |
| 27 | `CN1CCCN(CC(=O)N2CCc3[nH]c(-c4ccccc4)nc3C2)CC1` | 9.649% | 25.81% | 8.654% | 1.735% | 2.096% |
| 28 | `CC(C)c1noc(C(C)N2CCN(Cc3noc(C4CC4)n3)CC2)n1` (configuration not stated) | 12.73% | 11.11% | -37.43% | 1.752% | -0.7299% |
| 29 | `O=C(O)C(F)(F)F.[H][C@@]12C[C@@H](c3nnc(C)[nH]3)O[C@]1([H])CN(C1CCC1)C2` | - | - | -0.7012% | - | - |
| 30 | `Cn1ccnc1C(=O)N1CCC2(CC1)CC(Oc1cccnc1)CO2` (configuration not stated) | 2.4% | 9.735% | - | 2.108% | 11.68% |
| 31 | `O=C(O)C(F)(F)F.c1ccc(CN2CCCn3nnc(Cn4cccc4)c3C2)nc1` | - | - | -17.1% | - | - |
| 32 | `Cc1cccc2nc(CNCc3cccc4c3OCCCO4)cn12` | 8.247% | 9.89% | -11.38% | -1.185% | -5.189% |
| 33 | `Cc1ccc(C(CNCc2ncc[nH]2)N2CCOCC2)s1` (configuration not stated) | 0% | 9.821% | 0.05359% | 7.009% | 9.127% |
| 34 | `Cc1nccn1-c1ccc(C(C)NCc2ncc[nH]2)cc1` (configuration not stated) | 5.419% | 11.69% | 3.071% | 8.932% | -1.582% |
| 35 | `O=C(O)C(F)(F)F.[H][C@@]12C[C@H](C(=O)N3CCOCC3)[C@@]([H])(CN(c3ncc(CC)cn3)C1)O2` | - | - | -1.078% | - | - |
| 36 | `Cc1cccc(OC2CN(C(=O)c3cnn(C)c3)C2)c1` | -0.4926% | 30.26% | -4.756% | 2.724% | 2.581% |
| 37 | `Cc1cncc(C2CCCN(C(=O)c3scnc3C)C2)n1` (configuration not stated) | 0.5405% | 19.44% | 27.1% | 1.148% | 3.056% |
| 38 | `CCOC1COC2(CCN(C(=O)c3cccc(C)n3)CC2)C1` (configuration not stated) | 13.33% | 16.98% | - | 2.219% | 2.683% |
| 39 | `CCNc1nnc(SCc2nnc(C(C)(C)C)o2)s1` | 12.71% | 43.37% | -7.234% | 3.508% | 1.942% |
| 40 | `O=C(COCC1CC1)N1CCCC1c1nc(-c2ccccc2F)c[nH]1` (configuration not stated) | 12.5% | 10% | -1.658% | 6.158% | -4.925% |
| 41 | `O=C1CSC(c2ccc3c(c2)OCO3)c2cnn(C3CCCCC3)c2N1` (configuration not stated) | 1.242% | 7.5% | 15.73% | 2.006% | 1.646% |
| 42 | `CC(NC(=O)COc1ccc(Cl)cc1Cl)c1nncn1C(C)C` (configuration not stated) | -0.9662% | 5.833% | -24.55% | -1.952% | -1.863% |
| 43 | `CCS(=O)(=O)CCCOc1nc(-c2ccccc2Cl)no1` | 6.748% | 22.22% | 5.344% | 3.992% | 1.408% |
| 44 | `CCn1ncc2c1NC(=O)CC2c1cnc(-c2ccccn2)nc1` (configuration not stated) | 8.743% | 19.18% | 8.772% | 2.425% | 21.76% & 12.7% |
| 45 | `CC(C(=O)NC1CC1)n1nc(-c2cccs2)cc(N)c1=O` (configuration not stated) | 3.448% | 7.143% | 4.597% | -0.007008% | 7.732% & 35.92% |
| 46 | `[H][C@]12CC[C@]([H])(CN(C(=O)c3ccc(C(C)=O)s3)C1)N(CC1CCC1)C2` | - | - | 13.63% | - | - |
| 47 | `O=C(c1ccnn1COc1ccc(Cl)cc1)N1CCSCC1` | 1.554% | 10.11% | 5.434% | 3.371% | -2.083% |
| 48 | `Cc1cn[nH]c1C1CCCCN1C(=O)CCc1ccc(F)cc1` (configuration not stated) | 8.791% | 13.04% | -8.302% | 5.21% | 5.097% |
| 49 | `Cc1occc1C(=O)N1CCc2ncnc(-c3cnn(C)c3)c2CC1` | 4.237% | 13.21% | 1.754% | -1.256% | -9.692% |
| 50 | `O=C(NCC1OCCc2cn(CC3CC3)nc21)c1ccsc1` (configuration not stated) | 3.261% | 14.56% | -6.208% | 5.088% | 2.915% |
| 51 | `COc1ccccc1-n1cc(C(=O)NCCCn2nc(C)nc2C)cn1` | 1.98% | 2.174% | - | -1.902% | -0.1215% |
| 52 | `[H][C@@]12CCN(C(=O)COC)C[C@@]1([H])O[C@@H](C)C2` | - | - | 9.595% | - | - |
| 53 | `CCn1cc(CN2CCC(C3CCN(C)CC3)CC2)cc1C#N` | 8.861% | 16.67% | -3.946% | 3.255% | 6.25% |
| 54 | `CCc1ncc(-c2cn(CCSc3ncn[nH]3)nn2)cn1` | 3.665% | 0% | -1.671% | 5.928% | 4.321% |
| 55 | `O=C1COC2(CCN(c3cccc(F)c3)CC2)CN1Cc1ccccn1` | 6.452% | 36.84% | - | 3.883% | 2.326% |
| 56 | `CCCc1noc(CN2CCOCC2C)n1` (configuration not stated) | 2.97% | -4.762% | 15.97% | -8.516% | 6.068% |
| 57 | `Cc1cccc(CN2CCCC3(CCN(CC4CCCO4)CC3)C2)n1` (configuration not stated) | 3.518% | 3.96% | - | 3.16% | 5.817% |

For reference, 4 entries once more:

{"compound": "CCn1ncc2c1NC(=O)CC2c1cnc(-c2ccccn2)nc1", "stereo": "configuration not stated", "TcHisRS": 8.743, "LiHisRS": 19.18, "Toxoplasma": 8.772, "PfKRS1": 2.425, "CoaBC": "21.76 & 12.7"}
{"compound": "Cn1ccnc1C(=O)N1CCC2(CC1)CC(Oc1cccnc1)CO2", "stereo": "configuration not stated", "TcHisRS": 2.4, "LiHisRS": 9.735, "PfKRS1": 2.108, "CoaBC": 11.68}
{"compound": "CN1CCCN(CC(=O)N2CCc3[nH]c(-c4ccccc4)nc3C2)CC1", "TcHisRS": 9.649, "LiHisRS": 25.81, "Toxoplasma": 8.654, "PfKRS1": 1.735, "CoaBC": 2.096}
{"compound": "Cc1nccc(CN2Cc3nccn3CC2c2ccccc2)n1", "stereo": "configuration not stated", "TcHisRS": 4.52, "LiHisRS": 4.196, "Toxoplasma": 10.6, "PfKRS1": 0.9847, "CoaBC": 11.38}

Data taken from ChEMBL document CHEMBL3988442, “University of Dundee, Small-Polar-MMV Screening Library” (2021).